Results are given in words; binding and its absence hold for the method and conditions named. For some of these results: Binding seen in cells or lysates may run through a third protein. Some entries that bind do so weakly or less than the wild type. For some of these results: Sequences can lack the tags named with a protein.
T1: MAVS (endogenous, BMDM) (mouse (endogenous in BMDM)) (UniProt Q8VCF0)
T1 sequence: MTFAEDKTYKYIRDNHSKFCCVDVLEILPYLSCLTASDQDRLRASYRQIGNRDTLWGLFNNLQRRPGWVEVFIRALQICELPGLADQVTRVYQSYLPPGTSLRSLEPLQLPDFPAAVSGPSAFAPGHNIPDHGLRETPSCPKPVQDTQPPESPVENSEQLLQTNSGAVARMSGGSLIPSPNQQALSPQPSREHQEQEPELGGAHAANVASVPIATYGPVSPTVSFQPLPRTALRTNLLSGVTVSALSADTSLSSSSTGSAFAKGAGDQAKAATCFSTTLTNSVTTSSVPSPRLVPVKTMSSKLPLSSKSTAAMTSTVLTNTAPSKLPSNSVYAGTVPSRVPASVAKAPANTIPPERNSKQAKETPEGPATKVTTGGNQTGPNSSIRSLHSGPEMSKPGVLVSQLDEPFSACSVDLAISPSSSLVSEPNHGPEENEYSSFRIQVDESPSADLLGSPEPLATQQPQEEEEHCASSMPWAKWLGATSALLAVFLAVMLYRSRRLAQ

T2: STING (endogenous, BMDM) (mouse (endogenous in BMDM)) (UniProt Q3TBT3)
T2 sequence: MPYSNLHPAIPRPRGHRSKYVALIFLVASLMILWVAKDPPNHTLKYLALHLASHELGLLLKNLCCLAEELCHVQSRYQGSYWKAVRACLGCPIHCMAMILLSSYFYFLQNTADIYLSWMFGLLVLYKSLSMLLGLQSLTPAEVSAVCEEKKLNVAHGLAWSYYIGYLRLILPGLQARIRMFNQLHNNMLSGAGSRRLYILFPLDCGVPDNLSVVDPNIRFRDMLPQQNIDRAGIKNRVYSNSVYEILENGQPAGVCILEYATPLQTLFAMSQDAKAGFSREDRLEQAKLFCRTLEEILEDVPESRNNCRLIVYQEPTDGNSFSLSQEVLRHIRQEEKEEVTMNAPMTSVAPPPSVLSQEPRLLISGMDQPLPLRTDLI

T3: TRIM41 (endogenous, BMDM) (mouse (endogenous in BMDM)) (UniProt Q5NCC3)
T3 sequence: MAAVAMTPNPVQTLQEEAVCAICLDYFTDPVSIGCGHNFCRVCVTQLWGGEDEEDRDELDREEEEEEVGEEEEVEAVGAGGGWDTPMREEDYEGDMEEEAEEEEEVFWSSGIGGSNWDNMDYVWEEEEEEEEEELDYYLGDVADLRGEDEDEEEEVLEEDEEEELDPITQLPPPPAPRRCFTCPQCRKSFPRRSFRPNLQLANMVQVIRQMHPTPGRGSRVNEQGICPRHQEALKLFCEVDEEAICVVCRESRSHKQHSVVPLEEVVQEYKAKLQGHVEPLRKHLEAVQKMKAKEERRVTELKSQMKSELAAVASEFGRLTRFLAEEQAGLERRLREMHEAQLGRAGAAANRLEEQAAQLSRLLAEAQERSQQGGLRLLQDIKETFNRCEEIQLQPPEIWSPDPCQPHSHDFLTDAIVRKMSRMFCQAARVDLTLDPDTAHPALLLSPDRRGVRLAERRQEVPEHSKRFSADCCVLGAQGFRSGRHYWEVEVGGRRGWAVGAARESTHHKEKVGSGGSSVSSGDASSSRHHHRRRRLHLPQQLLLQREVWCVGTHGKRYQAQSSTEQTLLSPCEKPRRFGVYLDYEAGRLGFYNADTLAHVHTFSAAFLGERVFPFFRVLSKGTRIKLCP

T4: Flag-tagged TRIM41 (full length) (mouse) (UniProt Q5NCC3)
T4 sequence: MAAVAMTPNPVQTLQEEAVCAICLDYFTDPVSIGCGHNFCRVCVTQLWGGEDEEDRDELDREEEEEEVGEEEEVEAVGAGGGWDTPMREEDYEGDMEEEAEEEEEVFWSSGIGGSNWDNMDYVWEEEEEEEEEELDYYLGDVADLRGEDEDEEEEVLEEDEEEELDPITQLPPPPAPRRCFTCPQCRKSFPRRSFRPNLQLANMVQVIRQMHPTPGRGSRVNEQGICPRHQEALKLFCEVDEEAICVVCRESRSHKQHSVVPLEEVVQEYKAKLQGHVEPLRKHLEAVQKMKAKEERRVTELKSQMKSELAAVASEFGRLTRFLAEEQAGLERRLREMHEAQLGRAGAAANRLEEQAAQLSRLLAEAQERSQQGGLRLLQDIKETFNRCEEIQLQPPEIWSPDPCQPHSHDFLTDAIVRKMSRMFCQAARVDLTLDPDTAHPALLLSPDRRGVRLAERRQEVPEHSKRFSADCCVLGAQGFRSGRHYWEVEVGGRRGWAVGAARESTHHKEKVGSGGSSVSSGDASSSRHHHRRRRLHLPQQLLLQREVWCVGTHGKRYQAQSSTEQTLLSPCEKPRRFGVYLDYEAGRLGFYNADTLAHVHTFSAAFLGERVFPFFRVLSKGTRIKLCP

T5: GST-TRIM41 (mouse) (UniProt Q5NCC3)
T5 sequence: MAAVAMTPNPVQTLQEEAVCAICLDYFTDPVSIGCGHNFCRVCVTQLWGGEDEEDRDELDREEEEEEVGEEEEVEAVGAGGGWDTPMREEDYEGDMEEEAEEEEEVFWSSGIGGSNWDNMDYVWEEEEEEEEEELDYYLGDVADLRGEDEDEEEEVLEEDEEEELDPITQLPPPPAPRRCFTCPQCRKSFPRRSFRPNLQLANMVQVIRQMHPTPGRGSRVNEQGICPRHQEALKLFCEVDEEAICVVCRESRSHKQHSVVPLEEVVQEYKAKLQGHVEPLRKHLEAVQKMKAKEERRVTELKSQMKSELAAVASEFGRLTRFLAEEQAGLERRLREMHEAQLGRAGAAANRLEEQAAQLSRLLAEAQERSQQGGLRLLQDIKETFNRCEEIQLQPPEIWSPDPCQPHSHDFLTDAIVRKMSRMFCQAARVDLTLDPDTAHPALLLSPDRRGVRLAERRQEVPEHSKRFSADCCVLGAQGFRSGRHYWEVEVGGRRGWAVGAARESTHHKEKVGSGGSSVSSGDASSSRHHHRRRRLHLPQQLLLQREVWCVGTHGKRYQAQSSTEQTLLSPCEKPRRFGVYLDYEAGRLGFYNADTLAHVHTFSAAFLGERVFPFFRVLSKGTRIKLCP


How the values were obtained:
[1] = target: T1, MAVS (endogenous, BMDM) (mouse (endogenous in BMDM)); test: co-IP
[2] = target: T2, STING (endogenous, BMDM) (mouse (endogenous in BMDM)); test: co-IP
[3] = target: T3, TRIM41 (endogenous, BMDM) (mouse (endogenous in BMDM)); test: co-IP
[4] = target: T4, Flag-tagged TRIM41 (full length) (mouse); test: co-IP; HEK293T transiently transfected with Flag-tagged TRIM41 (or mutants) and Myc-tagged BCL10 (or mutants) for 48 h; whole cell extracts immunoprecipitated with anti-Flag or anti-Myc Sepharose Beads; Western blotting
GST-TRIM41 (mouse) [5] = target: T5, GST-TRIM41 (mouse); test: pull-down; 1 μg GST or GST-TRIM41 coincubated with 1 μg recombinant CARD9, CARD11 or BCL10 for 1 h; sepharose 4B beads; Western blotting; both purified
GST-TRIM41 (mouse) [6] = target: T5, GST-TRIM41 (mouse); test: condition: 1 μg GST-TRIM41 with 1 μg recombinant CARD9; pull-down; 1 μg GST or GST-TRIM41 coincubated with 1 μg recombinant CARD9, CARD11 or BCL10 for 1 h; sepharose 4B beads; Western blotting; both purified

| binding [1] | binding [2] | Binder | further results |
| --- | --- | --- | --- |
| binds | binds | BCL10 (B cell lymphoma 10; endogenous, BMDM) (protein, UniProt Q9Z0H7 1-233) MEAPAPSLTEEDLTEVKKDALENLRVYLCEKIIAERHFDHLRAKKILSREDTEEISCRTSSRKRAGKLLDYLQENPRGLDTLVESIRREKTQSFLIQKITDEVLKLRNIKLEHLKGLKCSSCEPFAAGATNNLSRCNSDESNLSEKQRASTVMYHPEGESSTAPFFSMASSLNLPVLEVGRTENSSFSSATLPRPGDPGAPPLPPDLRLEEGGSCGNSSEMFLPLRSRALSRQ | binding [3]: binds |
|  |  | Myc-tagged BCL10 (full length) (protein, UniProt Q9Z0H7 1-233) MEAPAPSLTEEDLTEVKKDALENLRVYLCEKIIAERHFDHLRAKKILSREDTEEISCRTSSRKRAGKLLDYLQENPRGLDTLVESIRREKTQSFLIQKITDEVLKLRNIKLEHLKGLKCSSCEPFAAGATNNLSRCNSDESNLSEKQRASTVMYHPEGESSTAPFFSMASSLNLPVLEVGRTENSSFSSATLPRPGDPGAPPLPPDLRLEEGGSCGNSSEMFLPLRSRALSRQ | binding [4]: binds |
| binds | binds | CARD11 (endogenous, BMDM) (protein, UniProt Q8CIS0 1-1159) MPGGGPAMDDYMETLKDEEEALWDNVECNRHMLSRYINPAKLTPYLRQCKVIDEQDEDEVLNAPMLPSKINRAGRLLDILHTKGQRGYVVFLESLEFYYPELYKLVTGKEPTRRFSTIVVEEGHEGLTHFLMNEVIKLQQQVKAKDLQRCELLAKSRQLEDEKKQLSLIRVELLTFQERYYKMKEERDSYNDELVKVKDDNYNLAMRYAQLSEEKNMAVMRSRDLQLEIDQLKHRLNKMEEECKLERNQSLKLKNDIENRPRKEQVLELERENEMLKTKIQELQSIIQAGKRSLPDSDKAILDILEHDRKEALEDRQELVNKIYNLQEEVRQAEELRDKYLEEKEDLELKCSTLGKDCEMYKHRMNTVMLQLEEVERERDQAFHSRDEAQTQYSQCLIEKDKYRKQIRELEEKNDEMRIEMVRREACIVNLESKLRRLSKDNGSLDQSLPRHLPATIISQNLGDTSPRTNGQEADDSSTSEESPEDSKYFLPYHPPRRRMNLKGIQLQRAKSPISMKQASEFQALMRTVKGHEEDFTDGSPSSSRSLPVTSSFSKMQPHRSRSSIMSITAEPPGNDSIVRRCKEDAPHRSTVEEDNDSCGFDALDLDDENHERYSFGPPSIHSSSSSHQSEGLDAYDLEQVNLMLRKFSLERPFRPSVTSGGHVRGTGPLVQHTTLNGDGLITQLTLLGGNARGSFIHSVKPGSLAERAGLREGHQLLLLEGCIRGERQSVPLDACTKEEARWTIQRCSGLITLHYKVNHEGYRKLLKEMEDGLITSGDSFYIRLNLNISSQLDACSMSLKCDDVVHVLDTMYQDRHEWLCARVDPFTDQDLDTGTIPSYSRAQQLLLVKLQRLVHRGNREEADSAHHTLRSLRNTLQPEEMLSTSDPRVSPRLSRASFFFGQLLQFVSRSENKYKRMNSNERVRIISGSPLGSLSRSSLDATKLLTEKHEELDPENELSRNLTLIPYSLVRAFHCERRRPVLFTPTMLAKTLVQKLLNSGGAMEFTICKSDIVTRDEFLRKQKTETIIYSREKNPNTFECIVPANIEAVAAKNKHCLLEAGIGCVRDLIKCKVYPIVLLIRVSEKNIKRFRKLLPRPETEEEFLRVCRLKEKELEALPCLYATVEAEMWSSVEELLRVLKDKIVEEQRKTIWVDEDQL |  |
| binds | binds | CARD9 (endogenous, BMDM) (protein, UniProt A2AIV8 1-536) MSDYENDDECWSTLESFRVKLISVIDPSRITPYLRQCKVLNPDDEEQVLSDPNLVIRKRKVGVLLDILQRTGHKGYVAFLESLELYYPQLYRKVTGKEPARVFSMIIDASGESGLTQLLMTEVMKLQKKVQDLTALLSSKDDFIKELRVKDSLLRKHQERVQRLKEECELSSAELKRCKDENYELAMCLAHLSEEKGAALMRNRDLQLEVDRLRHSLMKAEDDCKVERKHTLKLRHAMEQRPSQELLWELQQEKDLLQARVQELQVSVQEGKLDRNSPYIQVLEEDWRQALQEHQKQVSTIFSLRKDLRQAETLRARCTEEKEMFELQCLALRKDAKMYKDRIEAILLQMEEVSIERDQAMASREELHAQCTQSFQDKDKLRKLVRELGEKADELQLQLFQTESRLLAAEGRLKQQQLDMLILSSDLEDSSPRNSQELSLPQDLEEDAQLSDKGVLADRESPEQPFMALNKEHLSLTHGMGPSSSEPPEKERRRLKESFENYRRKRALRKMQNSWRQGEGDRGNTTGSDNTDTEGS |  |
|  |  | Recombinant BCL10 (Abcam ab82241) (protein, UniProt O95999 1-233) MEPTAPSLTEEDLTEVKKDALENLRVYLCEKIIAERHFDHLRAKKILSREDTEEISCRTSSRKRAGKLLDYLQENPKGLDTLVESIRREKTQNFLIQKITDEVLKLRNIKLEHLKGLKCSSCEPFPDGATNNLSRSNSDESNFSEKLRASTVMYHPEGESSTTPFFSTNSSLNLPVLEVGRTENTIFSSTTLPRPGDPGAPPLPPDLQLEEEGTCANSSEMFLPLRSRTVSRQ | binding (GST-TRIM41 (mouse) [5]): binds |
|  |  | Recombinant CARD9 (Abcam ab131800) (protein, UniProt Q9H257 1-536) MSDYENDDECWSVLEGFRVTLTSVIDPSRITPYLRQCKVLNPDDEEQVLSDPNLVIRKRKVGVLLDILQRTGHKGYVAFLESLELYYPQLYKKVTGKEPARVFSMIIDASGESGLTQLLMTEVMKLQKKVQDLTALLSSKDDFIKELRVKDSLLRKHQERVQRLKEECEAGSRELKRCKEENYDLAMRLAHQSEEKGAALMRNRDLQLEIDQLKHSLMKAEDDCKVERKHTLKLRHAMEQRPSQELLWELQQEKALLQARVQELEASVQEGKLDRSSPYIQVLEEDWRQALRDHQEQANTIFSLRKDLRQGEARRLRCMEEKEMFELQCLALRKDSKMYKDRIEAILLQMEEVAIERDQAIATREELHAQHARGLQEKDALRKQVRELGEKADELQLQVFQCEAQLLAVEGRLRRQQLETLVLSSDLEDGSPRRSQELSLPQDLEDTQLSDKGCLAGGGSPKQPFAALHQEQVLRNPHDAGLSSGEPPEKERRRLKESFENYRRKRALRKMQKGWRQGEEDRENTTGSDNTDTEGS | binding (GST-TRIM41 (mouse) [6]): no binding |
